The nature of the assay: qHTS Assay for Lipid Storage Modulators in Drosophila S3 Cells.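 On cell number change: cells counted by Cell Tracker Red CMTPX staining in the red channel.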 Particulars: BODIPY lipid droplet fluorescence, 18-24 h; for cell number change: measured here: cell count max response, cells fed with added oleic acid. In a few lines:
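Laser-scanning cytometry quantifies lipid droplet accumulation (500–530 nm total intensity; droplet/cell object ratio) in oleic acid-fed (400 uM added) Drosophila S3 cells treated with a concentration series. 20 uM Triacsin C defined 100% inhibition.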
(In general: qHTS replaces the single test concentration by a dilution series.)

Where [1] appears, read: measured here: cell number channel AC50, cells fed with added oleic acid.
[2] abbreviates: measured here: lipid fluorescence (Fed channel) AC50, cells fed with added oleic acid.

The list shows a part of the results. Further columns of the screen follow, without active or inactive calls. Most of these compounds were active or inconclusive in the main read-out, so they are no random draw. Potencies come from curve fits of mixed quality, noted in brackets.

Our source for the cell number change and AC50 values is PubChem BioAssay AID2685 (National Center for Advancing Translational Sciences (NCATS), 2010).

Usually AC50 stands for the concentration giving half of the maximal activity seen. Read a high AC50 as activity only at high concentration.

Consider `c1ccc(N=P(N2CCOCC2)(N2CCOCC2)N2CCOCC2)cc1`, for which the cell number change is 31.6%. The AC50 under setting [1] is 29.1 µM [rising, single point].
Regarding `O=C(CSc1nc(C(F)(F)F)cc(=O)[nH]1)N1CCCCCC1`, the cell number change was found to be 2.91%. For the same compound, the concentration at half-maximal activity (AC50) under setting [2] was 9.2 µM [falling, partial curve, poor fit].
In the case of `CCN(CC)CCNS(=O)(=O)c1ccc(OC)c(Br)c1`, the cell number change is -17.6%. The AC50 under setting [1] was 0.82 µM [falling, full curve, poor fit]. Also, the half-maximal activity concentration (AC50) under setting [2] is 20.6 µM [falling, partial curve].
As for `COc1cccc(NC(=O)CSC2=C(C#N)C(c3ccco3)C3=C(CCCC3=O)N2)c1` (stereo not drawn), the cell number change was -13.5%. Further, the AC50 under setting [2] was 0.0058 µM [rising, full curve, poor fit].
As to `O=[N+]([O-])c1cccc(NC(=S)Nc2nc(-c3ccccc3Cl)cs2)c1`, the AC50 under setting [1] is 0.82 µM [falling, full curve, poor fit].
On to `CCCCNc1oc(-c2cccs2)nc1S(=O)(=O)c1ccccc1`, for which the cell number change is -12.7%. Also, the concentration at half-maximal activity (AC50) under setting [2] is 2.91 µM [rising, partial curve].
In the case of `Cc1ccccc1OCC(=O)Nc1cccc(S(=O)(=O)NC2=NCCCCC2)c1`, the cell number change came out at 41.3%. In addition, the AC50 under setting [1] was 7.31 µM [rising, single point]. Further, the half-maximal activity concentration (AC50) under setting [2] was 0.0731 µM [rising, full curve, poor fit].
Consider `COc1ccc(Cl)cc1-c1nc(SCC(=O)NC(C)(C)C)n[nH]1`, for which the cell number change is -48.2%. Further, the AC50 under setting [2] is 29.1 µM [falling, partial curve, poor fit].
Consider `Cc1ccc(NC(=O)N(Cc2cc3cc(C)cc(C)c3[nH]c2=O)CC2COCCO2)cc1` (stereo not drawn), for which the cell number change is -8.16%. Besides, the concentration at half-maximal activity (AC50) under setting [1] is 2.91 µM [rising, single point]. The AC50 under setting [2] is 7.31 µM [rising, partial curve].
With `Cc1c(C(=O)N2CCN(c3ccc([N+](=O)[O-])cc3)CC2)sc2ncn(CC(=O)N3CCOCC3)c(=O)c12`, the cell number change was found to be 3.81%. Besides, the AC50 under setting [2] was 0.00517 µM [falling, full curve, poor fit].
In the case of `Cc1ccc(S(=O)(=O)N2CCOC2CNC(=O)C(=O)NCc2ccc(Cl)cc2)cc1` (stereo not drawn), the cell number change came out at 21.1%. Further, the AC50 under setting [2] was 29.1 µM [rising, single point].
Take `CS(=O)(=O)c1cccc(-c2nnc(NC(=O)c3ccc(S(=O)(=O)N4CCCC4)cc3)o2)c1`: the cell number change is 6.37%. For the same compound, under setting [2], the AC50 was 6.51 µM [falling, single point].
For `CN(C)S(=O)(=O)n1cc(/C=C(\NC(=O)c2ccccc2F)C(=O)N2CCCC2)c2ccccc21`, the AC50 under setting [2] is 6.51 µM [rising, single point].
Regarding `Cc1cc(NC(=O)CCC(=O)N(c2ccccc2)C2(C(=O)NC3CCCCC3)CCCC2)no1`, the cell number change is 0.484%.
On to `O=c1n(Cc2ccccc2)nc2n1-c1ccccc1SC2`, for which the cell number change turned out to be 17.9%. For the same compound, the AC50 under setting [2] is 3.26 µM [rising, full curve, poor fit].
Regarding `CC(=O)c1c(C)[nH]c(C(=O)NCCC2=CCCCC2)c1C`, the cell number change is -11.3%. For the same compound, under setting [2], the half-maximal activity concentration (AC50) is 0.58 µM [rising, single point].
As to `CCc1nc(C)cn1S(=O)(=O)c1cc(C)c(OC)c(C)c1C`, the cell number change was 123%. Under setting [1], the AC50 is 1.16 µM [rising, partial curve]. Besides, under setting [2], the half-maximal activity concentration (AC50) is 2.59 µM [rising, partial curve].
Turning to `COc1ccc(C)cc1N(CC(=O)NCCSCc1ccco1)S(=O)(=O)c1ccc(C)cc1`, the cell number change was -9.4%. Also, under setting [2], the half-maximal activity concentration (AC50) is 0.366 µM [rising, full curve].
Turning to `CCOC(=O)c1sc(NC(=O)COc2ncnc3ccccc23)c(C(=O)OCC)c1C`, the cell number change was -33.3%. Under setting [1], the AC50 was 7.31 µM [falling, partial curve, poor fit]. The half-maximal activity concentration (AC50) under setting [2] is 0.651 µM [falling, single point].
As to `Cc1ccc(S(=O)(=O)N2CCC3(CC2)CC(=O)c2ccccc2O3)cc1`, the cell number change was -11.9%. In addition, under setting [2], the AC50 is 2.59 µM [falling, single point].
For `COC(=O)Cn1cc(C(=O)c2ccco2)c2ccccc21`, the cell number change was 4.34%. Besides, the AC50 under setting [2] is 0.58 µM [falling, single point].
Consider `COc1ccc(N/C(C)=C/C(=O)c2ccccc2)cc1`, for which the cell number change is 46.3%. Besides, under setting [1], the concentration at half-maximal activity (AC50) is 18.4 µM [rising, single point]. Under setting [2], the AC50 was 2.31 µM [rising, full curve].
In the case of `O=C1COc2ccc(C(=O)c3ccccc3)cc2CN1`, the cell number change was -35.1%. The half-maximal activity concentration (AC50) under setting [1] was 20.6 µM [falling, single point]. The AC50 under setting [2] is 29.1 µM [falling, single point].
As for `Cc1ccc(C(=O)Nc2ccc(C(=O)N/N=C/c3ccncc3)cc2)cc1`, the cell number change was determined as 5.02%. The AC50 under setting [1] was 6.51 µM [rising, single point].
In the case of `COc1cc(/C=N/NC(=O)c2ccc(NS(=O)(=O)c3cccs3)cc2)cc(OC)c1O`, the cell number change is 9.92%. Moreover, the concentration at half-maximal activity (AC50) under setting [2] is 2.91 µM [rising, single point].
As for `c1csc(Cn2c(-c3cccs3)nc3ccccc32)c1`, the cell number change is -3.01%.
In the case of `O=C(COC(=O)c1ccc2c(c1)C(=O)N(CCc1ccccc1)C2=O)Nc1ccc(OC(F)F)cc1`, the cell number change was 0.331%.
With `Cc1cccc(Cn2cc3c(=O)n(Cc4cccc(F)c4)nc-3c3ccccc32)c1`, the cell number change worked out at 14.9%. Besides, the AC50 under setting [1] was 0.461 µM [rising, single point].
In the case of `Cc1ccc(CCC2C3=C(CCCC3=O)OC3=C2C(=O)CCC3)cc1`, the cell number change stood at 68.7%. For the same compound, under setting [1], the concentration at half-maximal activity (AC50) is 23.1 µM [rising, single point]. Besides, the AC50 under setting [2] is 4.61 µM [rising, single point].
With `NNC(=O)CNC(c1ccccc1)c1cc(Br)ccc1N` (stereo not drawn), the cell number change was found to be 14.5%. Also, under setting [1], the AC50 was 1.64 µM [rising, partial curve, poor fit]. The half-maximal activity concentration (AC50) under setting [2] was 1.84 µM [rising, partial curve].
Turning to `CC(=O)c1cc(F)c(N2CCCC2)cc1C`, the cell number change was determined as 18.2%. The AC50 under setting [2] was 4.11 µM [rising, partial curve, poor fit].
Consider `O=C(/C=C/c1ccc(Cl)cc1)NCCSc1ccccc1`, for which the cell number change was -40.6%. Further, the half-maximal activity concentration (AC50) under setting [1] is 20.6 µM [falling, single point]. The AC50 under setting [2] is 23.1 µM [falling, single point].
Turning to `O=C(COC(=O)CNC(=O)c1ccccc1F)Nc1cccc(S(=O)(=O)N2CCCCCC2)c1`, the cell number change came to 81.9%. The concentration at half-maximal activity (AC50) under setting [1] was 29.1 µM [rising, partial curve, poor fit].
As for `COc1ccc(N2CC(C)Cn3c2nc2c3c(=O)n(CCc3ccccc3)c(=O)n2C)cc1` (stereo not drawn), the cell number change stood at 13.4%. Besides, the AC50 under setting [2] is 0.0411 µM [rising, single point].
